Results are given in words; binding and its absence hold for the method and conditions named. In cells and extracts the contact can be indirect. Some results given as binding are weak or reduced against the parent protein; the word gives no strength.
Key:
Experiment in all cases: co-IP; nuclear proteins (25 ug/group) of human blood mDCs treated 40 h with medium, TSLP and/or curdlan; pre-cleared; anti-p105/p50 or anti-RelB with Protein A/G magnetic beads overnight at 4°C; immunoblot
[1] = biological target: T1, p50 (human (endogenous in blood mDCs)), P19838; conditions: remark: other sources report otherwise
T1 chain: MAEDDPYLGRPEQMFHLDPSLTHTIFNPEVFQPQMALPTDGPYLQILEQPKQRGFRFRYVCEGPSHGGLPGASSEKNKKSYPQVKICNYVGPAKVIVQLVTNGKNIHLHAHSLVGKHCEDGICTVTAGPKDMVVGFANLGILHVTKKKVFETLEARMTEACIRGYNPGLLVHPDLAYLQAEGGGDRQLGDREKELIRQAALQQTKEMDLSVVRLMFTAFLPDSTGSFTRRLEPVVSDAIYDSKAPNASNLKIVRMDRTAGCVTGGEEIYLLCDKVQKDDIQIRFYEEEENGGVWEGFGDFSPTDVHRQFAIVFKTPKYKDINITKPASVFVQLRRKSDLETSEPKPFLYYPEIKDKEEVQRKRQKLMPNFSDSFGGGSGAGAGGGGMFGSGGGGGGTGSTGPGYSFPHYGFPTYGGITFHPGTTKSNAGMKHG

[2] = biological target: T2, RelB (human (endogenous in blood mDCs)), Q01201; conditions: remark: other sources report otherwise
T2 chain: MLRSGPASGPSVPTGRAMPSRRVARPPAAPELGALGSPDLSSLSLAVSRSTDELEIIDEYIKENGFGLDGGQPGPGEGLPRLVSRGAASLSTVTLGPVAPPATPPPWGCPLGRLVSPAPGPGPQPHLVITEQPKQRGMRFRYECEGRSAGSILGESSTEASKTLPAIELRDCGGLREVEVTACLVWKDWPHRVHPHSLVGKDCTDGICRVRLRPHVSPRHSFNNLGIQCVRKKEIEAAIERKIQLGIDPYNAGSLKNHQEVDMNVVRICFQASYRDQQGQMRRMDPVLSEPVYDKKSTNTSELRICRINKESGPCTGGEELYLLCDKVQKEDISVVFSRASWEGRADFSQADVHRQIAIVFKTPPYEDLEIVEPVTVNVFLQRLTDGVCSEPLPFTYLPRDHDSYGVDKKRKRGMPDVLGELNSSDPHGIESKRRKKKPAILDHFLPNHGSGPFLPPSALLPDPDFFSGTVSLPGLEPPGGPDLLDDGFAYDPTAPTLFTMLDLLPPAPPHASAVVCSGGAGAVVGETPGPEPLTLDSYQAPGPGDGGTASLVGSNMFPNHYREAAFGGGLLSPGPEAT

[3] = biological target: T3, RelB (human (endogenous in blood mDCs)) (UniProt Q01201)
T3 sequence: T2 chain

B1: RelB, Q01201 1-579 (protein)
chain: T2 chain
binding [1]: binds

B2: p50, P19838 1-433 (protein)
chain: T1 chain
binding [2]: binds

B3: p100 (protein, UniProt Q00653-1 1-900)
chain: MESCYNPGLDGIIEYDDFKLNSSIVEPKEPAPETADGPYLVIVEQPKQRGFRFRYGCEGPSHGGLPGASSEKGRKTYPTVKICNYEGPAKIEVDLVTHSDPPRAHAHSLVGKQCSELGICAVSVGPKDMTAQFNNLGVLHVTKKNMMGTMIQKLQRQRLRSRPQGLTEAEQRELEQEAKELKKVMDLSIVRLRFSAFLRASDGSFSLPLKPVISQPIHDSKSPGASNLKISRMDKTAGSVRGGDEVYLLCDKVQKDDIEVRFYEDDENGWQAFGDFSPTDVHKQYAIVFRTPPYHKMKIERPVTVFLQLKRKRGGDVSDSKQFTYYPLVEDKEEVQRKRRKALPTFSQPFGGGSHMGGGSGGAAGGYGGAGGGGSLGFFPSSLAYSPYQSGAGPMGCYPGGGGGAQMAATVPSRDSGEEAAEPSAPSRTPQCEPQAPEMLQRAREYNARLFGLAQRSARALLDYGVTADARALLAGQRHLLTAQDENGDTPLHLAIIHGQTSVIEQIVYVIHHAQDLGVVNLTNHLHQTPLHLAVITGQTSVVSFLLRVGADPALLDRHGDSAMHLALRAGAGAPELLRALLQSGAPAVPQLLHMPDFEGLYPVHLAVRARSPECLDLLVDSGAEVEATERQGGRTALHLATEMEELGLVTHLVTKLRANVNARTFAGNTPLHLAAGLGYPTLTRLLLKAGADIHAENEEPLCPLPSPPTSDSDSDSEGPEKDTRSSFRGHTPLDLTCSTKVKTLLLNAAQNTMEPPLTPPSPAGPGLSLGDTALQNLEQLLDGPEAQGSWAELAERLGLRSLVDTYRQTTSPSGSLLRSYELAGGDLAGLLEALSDMGLEEGVRLLRGPETRDKLPSTAEVKEDSAYGSQSVEQEAEKLGPPPEPPGGLCHGHPQPQVH
binding [3]: binds

Reference: PMC8293820
